Results reported in PubChem BioAssay AID504467 (National Center for Advancing Translational Sciences (NCATS), 2011).
About 7,700 (2.3%) of roughly 330,000 compounds were called active. Inconclusive results, whose numbers are uncertain, are shown with a selection of clear calls. The call rests on the fitted dose curve; in most records, active means well fitted inhibition curve with a large enough effect; inconclusive means small, poorly fitted or top-dose-only effect, or effect the other way; inactive means flat fitted curve, though single readings scatter. Potencies beside an inconclusive call are fits to weak or partial responses and may not hold up.

assay: qHTS screen for small molecules that inhibit ELG1-dependent DNA repair in human embryonic kidney (HEK293T) cells expressing luciferase-tagged ELG1; details: HEK293T ELG1-luciferase reporter, luminescence, 16 h, DNA damage induced by 5-fluorouridine; activity change, negative = inhibition: at 46.1 µM (top of the series); further: nearly all actives have a fitted effect of over 55% in size
Summary of the method: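 5-Fluorouridine DNA damage + compound/DMSO, 2,000 cells/well, 16 h, 37 °C/5% CO2. ONE-Glo, 30 min RT, luminescence. Readout = decrease in reporter signal.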
On the % scale 0 is the no-effect control and ±100 the full control effect; potency means the concentration at half of the fitted maximal effect.

SMILES	Potency	activity change, negative = inhibition
COc1cccc(NC(=O)CSc2nc3ccccc3nc2N2CCCC2)c1	inconclusive: 13 µM [activator, partial curve, poor fit]	–
C=CCn1c2ccccc2c(=O)c2cc(C#Cc3ccccn3)ccc21	inconclusive: 1.64 µM [activator, partial curve]	–
COc1ccc(-c2sc3ccc(OC)cc3c2-c2ccc(O)cc2)cc1	active: 23.1 µM	–
Cc1cc(C(=O)Nc2sc3c(c2C#N)CCC3)no1	inconclusive: 10.3 µM [activator, partial curve]	–
O=C(N/N=C\c1ccccc1OCc1ccccc1)c1ccco1	inactive	–
CSc1ccc(CN(C)C(=O)c2cccc(S(=O)(=O)NCc3ccccc3)c2)cc1	inconclusive: 18.3 µM [inhibitor, partial curve]	–
Cc1ccc(/C=N/OC(=O)c2c(C)noc2-c2snnc2C)cc1	inconclusive: 0.206 µM [inhibitor, partial curve, poor fit]	–
COc1ccc2nc3c(c(-c4ccccc4)c2c1)CCC3	inconclusive: 20.6 µM [activator, partial curve, poor fit]	–
COc1ccc(N2C3=[N+](CCCC3)CC2(C)O)cc1 (stereo unspecified)	inactive	–
COc1cc(/C=C/C(=O)O[C@H]2[C@H](O[C@@H]3O[C@@H](C)[C@H](O)[C@@H](O)[C@H]3O)[C@@H](O)[C@H](OCCc3ccc(O)c(OC)c3)O[C@@H]2CO)ccc1O	inconclusive: 1.16 µM [inhibitor, single point]	–
O=C(NNC(=O)c1ccc([N+](=O)[O-])cc1C(=O)O)c1ccncc1	inactive	–
O=C(/C=C1\SC(=O)N(CC(=O)Nc2ccc(F)cc2)C1=O)Nc1ccc(Cl)cc1	inconclusive: 16.4 µM [activator, partial curve]	–
CCCCN(C(=O)Cc1ccc(S(=O)(=O)N2CCOCC2)s1)c1c(N)n(CC(C)C)c(=O)[nH]c1=O	inactive	–
CCOc1ccccc1N1CCN(Cc2cccc(OC)c2O)CC1	inactive	–
Cc1cccc(N2C(=O)CC(c3ccc(F)cc3)C3=C2COC3=O)c1 (stereo unspecified)	inactive	–
COc1ccc(OC)c(C=NNC(=O)c2ccc(NS(=O)(=O)c3cccs3)cc2)c1	inactive	–
O=C(c1cccc(F)c1)N1CCc2ccccc2C1	inactive	–
Cn1nnnc1SCC(=O)N(C1CCCCC1)C1CCCCC1	inactive	–
CCN(CC)CCCNC(=S)N1CCC(c2nc3ccccc3[nH]2)CC1	inactive	–
c1ccc(Nc2cc(Nc3ccccc3)[nH]n2)cc1	inconclusive: 29.1 µM [activator, single point]	–
Cc1ccc(N/N=C2\COC(C)(C)CC2=O)cc1	inconclusive: 8.2 µM [activator, partial curve]	–
CCC1(c2ccc(Cl)cc2)NC(=O)N(CC(=O)NCc2ccc(F)cc2)C1=O (stereo unspecified)	inactive	–
CN(C)S(=O)(=O)c1cccc(-c2nnc(SCC(=O)NCCCCCC(=O)O)n2-c2ccc(F)cc2)c1	inactive	–
CCc1ccc(NC(=O)CN2C(=O)CSC2=O)cc1	inconclusive: 20.6 µM [activator, single point]	–

SMILES	Potency	activity change, negative = inhibition
O=C(/C=C/c1cccc2ccccc12)N1CCOCC1	inconclusive: 16.4 µM [activator, partial curve]	–
COc1cccc(CN2CC(C(=O)NCCc3ccc(C)s3)CCC2=O)c1 (stereo unspecified)	inactive	–
C[C@H](N)c1nnc(SCc2c(Cl)cccc2Cl)o1	inconclusive: 29.1 µM [activator, single point]	–
COc1cc2c(cc1OC)CN(C(=O)c1ccc(Cl)c(S(=O)(=O)N3CCCC3)c1)CC2	inconclusive: 23.1 µM [inhibitor, single point]	–
N#C/C(=C\c1cn(Cc2ccc(C#N)cc2)c2ccccc12)C(=O)NCc1cccs1	inconclusive: 23.1 µM [activator, single point]	–
CCN(CC(=O)Nc1c(F)cccc1F)C(=O)c1cc(-c2cccs2)nn1-c1ccccc1	inconclusive: 5.8 µM [inhibitor, single point]	–
COc1ccc(OC)c(C2C(C#N)=C(N)N(N(C)C)C3=C2C(=O)CCC3)c1 (stereo unspecified)	–	inconclusive: 31.9% [activator]
CC(C)N1C(=O)CCC1C(=O)NCc1cccs1 (stereo unspecified)	–	inconclusive: 14% [activator]
CCOC(=O)C1CCCN(CC(=O)Nc2c(C(=O)OC)[nH]c3ccc(Cl)cc23)C1 (stereo unspecified)	active: 20.6 µM	–
CC1(C)C=C(c2ccc(C(=O)O)s2)CC(C)(C)N1	inactive	–
COC(=O)CC1C(=O)NC(C)=C1C(=O)OC (stereo unspecified)	inconclusive: 16.4 µM [activator, partial curve, poor fit]	–
CN(CC(=O)Nc1c(Cl)cccc1Cl)C(=O)CC1OC(=O)c2ccccc21 (stereo unspecified)	inactive	–
CCOC(=O)c1cc(C(=O)NCc2ccc(Cl)cc2Cl)nn1C	inconclusive: 20.6 µM [inhibitor, partial curve]	–
CC(C)(C)C(=O)Nc1sc2c(c1C(=O)Nc1ccccn1)CCCC2	inactive	–
Fc1ccccc1C1CCN(Cc2nc(CC3CC3)no2)C1 (stereo unspecified)	inconclusive: 18.3 µM [activator, partial curve]	–
CC(C)c1nc2ccccn2c1NC1CCCCC1	inactive	–
CCn1c(-c2cccnc2Cl)nc2cc(Cl)c(Cl)cc21	inconclusive: 16.4 µM [activator, partial curve]	–
CCOc1ccc(NC(=O)c2ccc(NC(=O)COC(=O)Cc3ccc(OC)cc3)cc2)cc1	inconclusive: 16.4 µM [activator, partial curve]	–
CC(=O)Oc1ccc(C23CC4CC(CC(C4)C2)C3)cc1C(=O)O	inactive	–
Cc1cc(=O)oc2cc(NC(=O)c3cccc(S(C)(=O)=O)c3)ccc12	inconclusive: 13 µM [activator, partial curve]	–
CCOC(=O)/C(=N\Nc1ccc(Cl)cc1)Sc1nnc(-c2ccc(OC)cc2)n1C	inactive	–
CC(C)c1nnc(NC(=O)c2c(O)c3cccc4c3n(c2=O)CCC4)s1	inconclusive: 3.66 µM [inhibitor, full curve, poor fit]	–
O=C(NCCCn1ccnc1)c1ccc(N2CCCCC2)c([N+](=O)[O-])c1	inconclusive: 29.1 µM [inhibitor, single point]	–
O=S(=O)(c1ccccc1)[C@@]1(c2ccccc2)C[C@@H]2ON=C(c3cccc(Br)c3)[C@@H]2C1	inactive	–

SMILES	Potency	activity change, negative = inhibition
Cc1ccc(CNc2ccc3c(c2)ncn3C(C)C)cc1	inconclusive: 8.2 µM [activator, partial curve]	–
COc1ccc(C(=O)/C=C/c2ccc(C)cc2)c(OC(=O)c2ccc([N+](=O)[O-])cc2)c1	inconclusive: 18.4 µM [activator, single point]	–
Cc1cccc(NC(=O)C2CCN(S(=O)(=O)c3c(C)noc3C)CC2)c1	inactive	–
COc1ccc(N2C(=O)CSC2c2ccc(F)c(F)c2)cc1 (stereo unspecified)	inconclusive: 20.6 µM [inhibitor, partial curve]	–
COc1ccc(OCCNC(=O)c2cc(C3CC3)nc3c2cnn3C(C)C)cc1	inactive	–
COc1ccc(NC(=O)CSc2nc3ccccc3c(=O)n2-c2ccc3c(c2)OCO3)c(OC)c1	inconclusive: 9.2 µM [inhibitor, partial curve]	–
CCN(CC(=O)Nc1cc(C)nn1-c1nc(C)cc(C)n1)Cc1ccccc1	active: 18.4 µM	–
CCOC(=O)C1=C(C)NC2=C(C(=O)CC(c3ccc(OC)c(OC)c3)C2)C1c1ccc(C)o1 (stereo unspecified)	inconclusive: 25.9 µM [inhibitor, partial curve]	–
O=C(CCc1ccccc1)Nc1ncc([N+](=O)[O-])s1	inconclusive: 1.83 µM [inhibitor, partial curve, poor fit]	–
Cn1c(SCC(=O)NCCc2ccccc2)nnc1C1CCCCC1	inactive	–
CCOC(=O)c1ccc(NCCOC)c([N+](=O)[O-])c1	inconclusive: 16.4 µM [activator, partial curve]	–
COc1ccc(N2CCN(C(=O)COc3cccc4ccccc34)CC2)cc1	inconclusive: 25.9 µM [inhibitor, partial curve, poor fit]	–
CCOc1cc(/C=C2\CCC/C(=C\c3cc(Cl)c(O)c(OCC)c3)C2=O)cc(Cl)c1O	active: 6.51 µM	–
CC1(C)CC1C(=O)Nc1ccc([N+](=O)[O-])cc1Br (stereo unspecified)	inconclusive: 29.1 µM [activator, partial curve, poor fit]	–
CCCS(=O)(=O)c1c(S(=O)(=O)CCC)c2c(C)cccn2c1C(=O)OC	inconclusive: 23.1 µM [inhibitor, partial curve, poor fit]	–
CN(C)S(=O)(=O)c1ccc(NCC2COc3ccccc3O2)c([N+](=O)[O-])c1 (stereo unspecified)	inconclusive: 14.6 µM [inhibitor, partial curve, poor fit]	–
C[C@@H]1CN([C@H](C)CO)C(=O)Cc2cc(NC(=O)Nc3ccccc3)ccc2O[C@@H]1CN(C)C(=O)Nc1ccc2c(c1)OCO2	inactive	–
O=C(Nc1ccn(Cc2ccccc2)n1)c1ccc(F)cc1	inconclusive: 7.3 µM [activator, partial curve]	–
O=C(N/N=C/C1CCCCC1)c1ccccn1	inconclusive: 20.6 µM [activator, single point]	–
Cc1nc(CS(=O)c2ccc(Cl)cc2)cc(N2CCOCC2)n1 (stereo unspecified)	inactive	–
O=C(COC(=O)c1cc[n+]([O-])cc1)Nc1ccc(Cl)cc1[N+](=O)[O-]	inactive	–
CN(CC(=O)Nc1cccc(F)c1)CC(=O)Nc1cc(S(=O)(=O)N2CCOCC2)ccc1Cl	inconclusive: 14.6 µM [inhibitor, partial curve, poor fit]	–
c1ccc2c(-c3nc(C4CCCCC4)no3)cc(-c3ccncc3)nc2c1	inconclusive: 10 µM [inhibitor, partial curve, poor fit]	–

Copied from the list:
Value for `COc1ccc(C(=O)/C=C/c2ccc(C)cc2)c(OC(=O)c2ccc([N+](=O)[O-])cc2)c1` under Potency: inconclusive: 18.4 µM [activator, single point]
Value for `CCN(CC(=O)Nc1cc(C)nn1-c1nc(C)cc(C)n1)Cc1ccccc1` under Potency: active: 18.4 µM
Value for `O=C(CCc1ccccc1)Nc1ncc([N+](=O)[O-])s1` under Potency: inconclusive: 1.83 µM [inhibitor, partial curve, poor fit]
Value for `COc1ccc(N2CCN(C(=O)COc3cccc4ccccc34)CC2)cc1` under Potency: inconclusive: 25.9 µM [inhibitor, partial curve, poor fit]
